Assay results taken from PubChem BioAssay AID330 (DTP/NCI, 2004).
The list shows only some results of the screen, not a fair sample: it is rich in T/C values a quarter to a half above the control, in often repeated tests (any T/C) and in doses without a T/C. Other doses and runs of a compound stand elsewhere. T/C: endpoint of the treated group in % of that of the vehicle group. Some doses have a count of surviving animals in place of a T/C: the source files T/C as zero there, which appears to mark a toxic dose or a test without result, not a measured value. Some survivor counts are full or nearly so, which does not show that the dose was tolerated: survival well below the control is almost never listed, so the zero probably covers shortened survival too. Survivors were counted at the toxicity check, usually on the fifth day, unless a day is given; later deaths do not show. Schedule codes are those of the source, read here as Q, the interval in days (D) or hours (H), X, the number of doses. Where survival is the endpoint, the PubChem record calls one and a half times the control and up active, and a quarter to a half above the control has no call in these data; cut-offs in other NCI protocols can differ. Brackets with × count equal records among those shown. Some entries were tested several times; their values stand side by side, smallest first. Some T/C values carry the count of animals alive at the toxicity check (mostly the fifth day); where none is given, no animal had died by that day.

System: P388 leukemia ip, CD2F1 mice, survival T/C
Assay: NCI In Vivo Anticancer Drug Screen. Data for tumor model P388 Leukemia (intraperitoneal) in CD2F1 (CDF1) mice
Details: T/C endpoint: median survival time, higher T/C = longer survival
[1] = dose: 200.0 mg/kg/injection, schedule: Q04DX003 (ip), vehicle: saline with Tween-80
[2] = dose: 200.0 mg/kg/injection, schedule: Q01DX009 (ip), vehicle: gum acacia
[3] = dose: 6.25 mg/kg/injection, schedule: Q01DX005 (ip), vehicle: Klucel (hydroxypropylcellulose) (HPC)
[4] = dose: 200.0 mg/kg/injection, schedule: Q01DX005 (ip), vehicle: saline with Tween-80
[5] = dose: 50.0 mg/kg/injection, schedule: Q01DX009 (ip), vehicle: saline
[6] = dose: 100.0 mg/kg/injection, schedule: Q01DX009 (ip), vehicle: saline
[7] = dose: 100.0 mg/kg/injection, schedule: Q01DX009 (ip), vehicle: saline with Tween-80
[8] = dose: 200.0 mg/kg/injection, schedule: Q01DX009 (ip), vehicle: saline with Tween-80

In the case of `CC(C)c1ccc(C(O)C2CC2)cc1` (stereo unspecified), the survivor count [1] is reported as 3 of 6.

With `CC(=O)Oc1c(C)c(OC(C)=O)c2c(c1C(C)=O)OC1=CC(O)=C(C(C)=O)C(=O)C12C` (stereo unspecified) the T/C [2] was 144 % of control [5 of 6 alive] and the survivor count [2] was 3 of 6.

For `Cc1[nH]c(=O)[nH]c(=O)c1/C=C/C(=O)NC(CO)CS(C)=O` (stereo unspecified), the survivor count (dose: 0.08 mg/kg/injection, schedule: Q01DX009 (ip), vehicle: water) was 6 of 6, the survivor count (dose: 2.5 mg/kg/injection, schedule: Q01DX009 (ip), vehicle: water) was 6 of 6 and the survivor count (dose: 5.0 mg/kg/injection, schedule: Q01DX009 (ip), vehicle: water) was 6 of 6. For the same compound, the T/C (dose: 8.0 mg/kg/injection, schedule: Q01DX009 (ip), vehicle: water) was 133 % of control, the survivor count (dose: 10.0 mg/kg/injection, schedule: Q01DX009 (ip), vehicle: water) was 6 of 6 and the T/C (dose: 16.0 mg/kg/injection, schedule: Q01DX009 (ip), vehicle: water) was 134 % of control. The survivor count (dose: 20.0 mg/kg/injection, schedule: Q01DX009 (ip), vehicle: water) was 6 of 6, the T/C (dose: 128.0 mg/kg/injection, schedule: Q01DX009 (ip), vehicle: water) was 137 % of control and the T/C (dose: 256.0 mg/kg/injection, schedule: Q01DX009 (ip), vehicle: water) was 127 and 137 % of control. For the same compound, the survivor count (dose: 384.0 mg/kg/injection, schedule: Q01DX009 (ip), vehicle: water) was 2 of 4.

For `COc1cc2c[n+]3ccccc3c(N)c2cc1OC`, the survivor count (dose: 400.0 mg/kg/injection, schedule: Q04DX003 (ip), vehicle: distilled water + Tween-80) was 1 of 6.

In the case of `CCCC1OC(/C=C/c2ccccc2)OCC1CC` (stereo unspecified), the T/C (dose: 400.0 mg/kg/injection, schedule: Q01DX009 (ip), vehicle: saline with Tween-80) is reported as 125 % of control.

For `O=C1CC2(Cl)CN3c4ccccc4C(=O)CC3(Cl)CN2c2ccccc21` (stereo unspecified), the survivor count (dose: 100.0 mg/kg/injection, schedule: Q04DX003 (ip), vehicle: alcohol) was 2 of 6, the survivor count (dose: 200.0 mg/kg/injection, schedule: Q04DX003 (ip), vehicle: alcohol) was 0 of 6 and the survivor count (dose: 400.0 mg/kg/injection, schedule: Q04DX003 (ip), vehicle: alcohol) was 0 of 6.

With `CCS/C(SC)=C(/c1ccccc1)[P+](c1ccccc1)(c1ccccc1)c1ccccc1` the T/C (dose: 1.56 mg/kg/injection, schedule: Q01DX005 (ip), vehicle: Klucel (hydroxypropylcellulose) (HPC)) was 140 % of control, the T/C [3] was 126 % of control and the survivor count [3] was 5 of 6. The survivor count (dose: 12.5 mg/kg/injection, schedule: Q01DX005 (ip), vehicle: Klucel (hydroxypropylcellulose) (HPC)) was 0 of 6, the survivor count (dose: 25.0 mg/kg/injection, schedule: Q01DX005 (ip), vehicle: Klucel (hydroxypropylcellulose) (HPC)) was 3 of 6 and the survivor count (dose: 50.0 mg/kg/injection, schedule: Q01DX005 (ip), vehicle: Klucel (hydroxypropylcellulose) (HPC)) was 2 of 6. The survivor count (dose: 100.0 mg/kg/injection, schedule: Q01DX005 (ip), vehicle: Klucel (hydroxypropylcellulose) (HPC)) was 0 of 6 and the survivor count (dose: 200.0 mg/kg/injection, schedule: Q01DX005 (ip), vehicle: Klucel (hydroxypropylcellulose) (HPC)) was 0 of 6.

In the case of `Cc1cccc(N2CCN(C(=O)/C(=C/c3ccccc3)NC(=O)c3ccccc3)CC2)c1`, the survivor count [4] is reported as 5 of 6.

With `O=C1C(Cl)=C(NCCCC2CCCN3CCCCC23)C(=O)c2ccccc21` (stereo unspecified) the survivor count (dose: 200.0 mg/kg/injection, schedule: Q04DX002 (ip), vehicle: Klucel (hydroxypropylcellulose) (HPC)) was 0 of 6 and the survivor count (dose: 400.0 mg/kg/injection, schedule: Q04DX002 (ip), vehicle: Klucel (hydroxypropylcellulose) (HPC)) was 0 of 6.

For `C[N+]1(C)Cc2ccccc2C1`, the survivor count [5] was 2 of 6 and the survivor count [6] was 0 of 6.

In the case of `O=C1N[C@H]2[C@H](CS[C@H]2CCCCC(=O)N(CCP(c2ccccc2)c2ccccc2)CCP(c2ccccc2)c2ccccc2)N1`, the T/C (dose: 50.0 mg/kg/injection, schedule: Q01DX009 (ip), vehicle: Klucel (hydroxypropylcellulose) (HPC)) is reported as 135 % of control, the T/C (dose: 100.0 mg/kg/injection, schedule: Q01DX009 (ip), vehicle: Klucel (hydroxypropylcellulose) (HPC)) is reported as 127 % of control and the T/C (dose: 200.0 mg/kg/injection, schedule: Q01DX009 (ip), vehicle: Klucel (hydroxypropylcellulose) (HPC)) is reported as 135 % of control [4 of 6 alive].

`c1ccc(Cc2cc[n+](Cc3ccccc3)cc2)cc1` was tested, and the survivor count [6] was 2 of 6 and the survivor count (dose: 200.0 mg/kg/injection, schedule: Q01DX009 (ip), vehicle: saline) was 0 of 6.

`CCCC(=O)O` was tested, and the survivor count (dose: 400.0 mg/kg/injection, schedule: Q01DX009 (ip), vehicle: saline) was 1 of 6.

With `COc1ccc(NC(=O)C(Cl)Cl)ccc1=O` the survivor count [7] was 5 of 6 and the survivor count [8] was 3 of 6.

For `Nc1c(/C=C/c2ccccc2)[nH]c(=O)[nH]c1=O`, the survivor count (dose: 200.0 mg/kg/injection, schedule: Q04DX002 (ip), vehicle: saline) was 5 of 6 and the survivor count (dose: 400.0 mg/kg/injection, schedule: Q04DX002 (ip), vehicle: saline) was 6 of 6.

In the case of `CC1=CC2c3cccc4[nH]cc(c34)CC2N(C)C1` (stereo unspecified), the T/C (dose: 5.0 mg/kg/injection, schedule: Q01DX009 (ip), vehicle: saline) is reported as 141 % of control.

For `CC(c1ccccc1)[P+](c1ccccc1)(c1ccccc1)c1ccccc1` (stereo unspecified), the T/C (dose: 3.13 mg/kg/injection, schedule: Q01DX009 (ip), vehicle: saline) was 126 % of control, the survivor count (dose: 6.25 mg/kg/injection, schedule: Q01DX009 (ip), vehicle: saline) was 5 of 6 and the survivor count (dose: 12.5 mg/kg/injection, schedule: Q01DX009 (ip), vehicle: saline) was 1 of 6. For the same compound, the survivor count (dose: 25.0 mg/kg/injection, schedule: Q01DX009 (ip), vehicle: saline) was 0 of 6 and the survivor count [5] was 0 of 6.

For `Cc1cc(C)c(C(CC(=O)O)C(CC(=O)O)c2c(C)cc(C)cc2C)c(C)c1` (stereo unspecified), the survivor count (dose: 120.0 mg/kg/injection, schedule: Q01DX005 (ip), vehicle: Klucel (hydroxypropylcellulose) (HPC)) was 6 of 6 and the survivor count (dose: 240.0 mg/kg/injection, schedule: Q01DX005 (ip), vehicle: Klucel (hydroxypropylcellulose) (HPC)) was 5 of 6.

For `CC(=O)Nc1ccc(S(=O)(=O)/C(=C/c2ccc(-c3ccc(Br)cc3)o2)c2ccc([N+](=O)[O-])o2)cc1`, the survivor count (dose: 200.0 mg/kg/injection, schedule: Q01DX009 (ip), vehicle: suspension in saline) was 6 of 6.

In the case of `O/N=C/c1cccc(O)c1O`, the T/C [4] is reported as 125 % of control.

With `Nc1[nH]c(=S)[nH]c(=O)c1N=Cc1ccc2c(c1)OCO2` the T/C (dose: 400.0 mg/kg/injection, schedule: Q04DX003 (ip), vehicle: Klucel (hydroxypropylcellulose) (HPC)) was 133 % of control (2×).

`C1=CCC23CCCCC2(C1)CN(/N=N/N1CC24CC=CCC2(CCCC4)C1)C3` (stereo unspecified) was tested, and the survivor count (dose: 25.0 mg/kg/injection, schedule: Q01DX009 (ip), vehicle: Klucel (hydroxypropylcellulose) (HPC)) was 6 of 6.

In the case of `COc1cc2cc3c(c(O)c2c(OC)c1OC)C(=O)CC(C)(C)C3`, the survivor count (dose: 100.0 mg/kg/injection, schedule: Q01DX005 (ip), vehicle: saline with Tween-80) is reported as 5 of 5.

In the case of `CC(/C=N\NC(=O)C[N+](C)(C)C)=N/NC(=O)C[N+](C)(C)C`, the survivor count (dose: 100.0 mg/kg/injection, schedule: Q01DX001 (ip), vehicle: saline) is reported as 0 of 6, the survivor count (dose: 200.0 mg/kg/injection, schedule: Q01DX001 (ip), vehicle: saline) is reported as 0 of 6 and the survivor count (dose: 400.0 mg/kg/injection, schedule: Q01DX001 (ip), vehicle: saline) is reported as 0 of 6.

`CCCCN(CCCC)CC(O)c1cc(-c2ccc(C(F)(F)F)cc2)nc(-c2ccc(C(F)(F)F)cc2)c1` (stereo unspecified) was tested, and the survivor count (dose: 50.0 mg/kg/injection, schedule: Q01DX009 (ip), vehicle: saline with Tween-80) was 6 of 6, the survivor count [7] was 6 of 6 and the survivor count [8] was 4 of 6.

For `O=C1c2ccccc2C(=O)c2c(NCCSCCO)ccc(NCCSCCO)c21`, the survivor count (dose: 256.0 mg/kg/injection, schedule: Q01DX009 (ip), vehicle: Klucel (hydroxypropylcellulose) (HPC)) was 8 of 8.

With `Nc1nc(Cl)c(C=O)c(Cl)n1` the T/C (dose: 12.5 mg/kg/injection, schedule: Q01DX009 (ip), vehicle: saline with Tween-80) was 125 % of control, the T/C [7] was 127 % of control and the survivor count [8] was 3 of 6.

`CN(c1ccccc1)C1C2=C(CCCC2)OC(=O)C12SCCCS2` (stereo unspecified) was tested, and the T/C [1] was 139 % of control and the survivor count [1] was 3 of 6.
